{"source": "patent US20220275390A1", "about": "“RUBISCO-BINDING PROTEIN MOTIFS AND USES THEREOF” (The Trustees of Princeton University, priority 2019, published 2022)", "key": {"[1]": {"biological_target": "Chlamydomonas reinhardtii Rubisco holoenzyme (L8S8) (Chlamydomonas reinhardtii) (UniProt P00877)", "test": "SPR on purified Rubisco, response normalized to 1,000 Rubisco RUs, +/-SD, n=3; the text speaks of fifteen amino acid-long synthetic peptides"}, "[2]": {"biological_target": "Chlamydomonas reinhardtii Rubisco holoenzyme (L8S8) (Chlamydomonas reinhardtii) (UniProt P00877)", "test": "SPR, purified Rubisco immobilized, synthetic peptide in solution (FIG. 13)"}, "[3]": {"biological_target": "Chlamydomonas reinhardtii Rubisco holoenzyme (L8S8) (Chlamydomonas reinhardtii) (UniProt P00877)", "test": "cryo-EM structure, 2.8 Å"}, "[4]": {"biological_target": "Chlamydomonas reinhardtii Rubisco holoenzyme (L8S8) (Chlamydomonas reinhardtii) (UniProt P00877)", "test": "SPR, Rubisco immobilized, peptide in solution"}, "[5]": {"biological_target": "Chlamydomonas reinhardtii Rubisco holoenzyme (L8S8) (Chlamydomonas reinhardtii) (UniProt P00877)", "test": "cryo-EM, substitution arrays, SPR, yeast two-hybrid (summary of Example 2)"}, "[6]": {"biological_target": "Chlamydomonas reinhardtii Rubisco holoenzyme (L8S8) (Chlamydomonas reinhardtii) (UniProt P00877)", "test": "SPR, steady-state fit"}, "[7]": {"biological_target": "Chlamydomonas reinhardtii Rubisco holoenzyme (L8S8) (Chlamydomonas reinhardtii) (UniProt P00877)", "test": "SPR, Rubisco-binding signal"}, "[8]": {"biological_target": "Chlamydomonas reinhardtii Rubisco holoenzyme (L8S8) (Chlamydomonas reinhardtii) (UniProt P00877)", "test": "SPR, response signal"}}, "note": "Results are given in words; binding and its absence hold for the method and conditions named. Some entries that bind do so weakly or less than the wild type."}
{"binder": "RGTGDSPTRRAFGDWRKNL", "note": "[SEQ ID NO 3]", "values": [{"measurement": "binding", "setting": "[1]", "result": "binds"}, {"measurement": "binding", "setting": "[2]", "result": "binds"}]}
{"binder": "RNASPVRRTAIPANWRDAL", "note": "[SEQ ID NO 5]", "values": [{"measurement": "binding", "setting": "[1]", "result": "binds"}, {"measurement": "binding", "setting": "[2]", "result": "binds"}]}
{"binder": "TELSEANRPRTRPDWRNQL", "note": "[SEQ ID NO 9]", "values": [{"measurement": "binding", "setting": "[1]", "result": "binds"}, {"measurement": "binding", "setting": "[2]", "result": "binds"}]}
{"binder": "SPSERLAREARMRDWRARV", "note": "[SEQ ID NO 11]", "values": [{"measurement": "binding", "setting": "[1]", "result": "binds"}, {"measurement": "binding", "setting": "[2]", "result": "binds"}]}
{"binder": "KSKPEIKRTALPADWRKGL", "note": "[SEQ ID NO 18]", "values": [{"measurement": "binding", "setting": "[1]", "result": "binds"}, {"measurement": "binding", "setting": "[2]", "result": "binds"}]}
{"binder": "RSATTGRSGSVPKDWRSSL", "note": "[SEQ ID NO 25]", "values": [{"measurement": "binding", "setting": "[1]", "result": "binds"}, {"measurement": "binding", "setting": "[2]", "result": "binds"}]}
{"binder": "TNRVSPTRSVLPANWRQELESLRN", "note": "[24 amino acid EPYC1 fragment spanning RBM 2]", "values": [{"measurement": "binding", "setting": "[3]", "result": "binds"}, {"measurement": "binding", "setting": "[4]", "result": "binds"}, {"measurement": "binding", "setting": "[5]", "result": "binds"}, {"measurement": "binding", "setting": "[6]", "result": "binds"}]}
{"binder": "TRSVLPANWRQELESLRN", "note": "[EPYC1 RBM 2 peptide (middle 16 amino acids of EPYC1 RBM 2)]", "values": [{"measurement": "binding", "setting": "[7]", "result": "binds"}, {"measurement": "binding", "setting": "[8]", "result": "binds"}]}
{"binder": "TASVLPANWRQELESLRN", "note": "[tasvlpanwrqeleslrn]", "values": [{"measurement": "binding", "setting": "[7]", "result": "binds"}]}
{"binder": "TRSVLPAAWRQELESLRN", "note": "[trsvlpaawrqeleslrn]", "values": [{"measurement": "binding", "setting": "[7]", "result": "binds"}]}
{"binder": "TRSVLPANARQELESLRN", "note": "[trsvlpanarqeleslrn]", "values": [{"measurement": "binding", "setting": "[7]", "result": "binds"}]}
{"binder": "TRSVLPANWAQELESLRN", "note": "[trsvlpanwaqeleslrn]", "values": [{"measurement": "binding", "setting": "[7]", "result": "binds"}]}
{"binder": "TRSVLPANWRAELESLRN", "note": "[trsvlpanwraeleslrn]", "values": [{"measurement": "binding", "setting": "[7]", "result": "binds"}]}
{"binder": "TRSVLPANWRQALESLRN", "note": "[trsvlpanwrqaleslrn]", "values": [{"measurement": "binding", "setting": "[7]", "result": "binds"}]}
{"binder": "TRSVLPANWRQEAESLRN", "note": "[trsvlpanwrqeaeslrn]", "values": [{"measurement": "binding", "setting": "[7]", "result": "binds"}]}
{"binder": "TRSVLPANWRQELASLRN", "note": "[trsvlpanwrqelaslrn]", "values": [{"measurement": "binding", "setting": "[7]", "result": "binds"}]}
{"binder": "TRSVLPANWRQELESARN", "note": "[trsvlpanwrqelesarn]", "values": [{"measurement": "binding", "setting": "[7]", "result": "binds"}]}
{"binder": "TRSVLPANWRQELESLAN", "note": "[trsvlpanwrqeleslan]", "values": [{"measurement": "binding", "setting": "[7]", "result": "binds"}]}
{"binder": "TRSVLPANWRQE", "values": [{"measurement": "binding", "setting": "[8]", "result": "binds"}]}
{"binder": "TRSVLPANW", "values": [{"measurement": "binding", "setting": "[8]", "result": "binds"}]}
{"binder": "RQELESLRN", "values": [{"measurement": "binding", "setting": "[8]", "result": "binds"}]}
{"binder": "ANWRQELESLRN", "values": [{"measurement": "binding", "setting": "[8]", "result": "binds"}]}
{"binder": "VLPANWRQELESLRN", "values": [{"measurement": "binding", "setting": "[8]", "result": "binds"}]}
{"binder": "KAQPQQPGRSTSADWRRLVSGGDAAGKDA", "note": "[SEQ ID NO 4]", "values": [{"measurement": "binding", "setting": "[2]", "result": "binds"}]}
{"binder": "SGADSRSPSPRTLAWREAAEAQEREQESK", "note": "[SEQ ID NO 6]", "values": [{"measurement": "binding", "setting": "[2]", "result": "binds"}]}
{"binder": "PPAPAPAPAKTKPDWREQAQAPVQAAAAA", "note": "[SEQ ID NO 7]", "values": [{"measurement": "binding", "setting": "[2]", "result": "binds"}]}
{"binder": "ASDSEGGETVTKANWREALAALHDAGSDG", "note": "[SEQ ID NO 8]", "values": [{"measurement": "binding", "setting": "[2]", "result": "binds"}]}
{"binder": "ADADRSDSSRRPVNWRDELQSLKATREPN", "note": "[SEQ ID NO 10]", "values": [{"measurement": "binding", "setting": "[2]", "result": "binds"}]}
{"binder": "ARVVVSAGSRAPSNWRQQVDGGSNGNGNG", "note": "[SEQ ID NO 12]", "values": [{"measurement": "binding", "setting": "[2]", "result": "binds"}]}
{"binder": "PSVSPSASAVVPRDWRRELQSSAGEGAES", "note": "[SEQ ID NO 13]", "values": [{"measurement": "binding", "setting": "[2]", "result": "binds"}]}
{"binder": "PAAPSTSRSRSVTNWRDQVEAEAARAATA", "note": "[SEQ ID NO 14]", "values": [{"measurement": "binding", "setting": "[2]", "result": "binds"}]}
{"binder": "APAPVSFRSASRSSWRDEVAAEAVPVPAA", "note": "[SEQ ID NO 15]", "values": [{"measurement": "binding", "setting": "[2]", "result": "binds"}]}
{"binder": "GAEEEAAAAAVPDDWRQAAEAEAYAPAGT", "note": "[SEQ ID NO 16]", "values": [{"measurement": "binding", "setting": "[2]", "result": "binds"}]}
{"binder": "GDAASARASTVMSNWRDVIDSGAEVSAAP", "note": "[SEQ ID NO 17]", "values": [{"measurement": "binding", "setting": "[2]", "result": "binds"}]}
{"binder": "ASSAPAPARSSSASWRDAPASSSSSSADK", "note": "[SEQ ID NO 19]", "values": [{"measurement": "binding", "setting": "[2]", "result": "binds"}]}
{"binder": "KKAVTPSRSALPSNWKQELESLRSNSPAP", "note": "[SEQ ID NO 20]", "values": [{"measurement": "binding", "setting": "[2]", "result": "binds"}]}
{"binder": "KKAVTPSRSALPSNWKQELESLRSSSPAP", "note": "[SEQ ID NO 21]", "values": [{"measurement": "binding", "setting": "[2]", "result": "binds"}]}
{"binder": "ASSAPAPARSSSASWRDAAPASSAPARSS", "note": "[SEQ ID NO 22]", "values": [{"measurement": "binding", "setting": "[2]", "result": "binds"}]}
{"binder": "TNRVSPTRSVLPANWRQELESLRNGNGSS", "note": "[SEQ ID NO 23]", "values": [{"measurement": "binding", "setting": "[2]", "result": "binds"}]}
{"binder": "SGRVKTVKVAARGSWRESSTATVQASRAS", "note": "[SEQ ID NO 24]", "values": [{"measurement": "binding", "setting": "[2]", "result": "binds"}]}
{"binder": "RRDLKIKRTVLPANWRDSLDEDEPAKPAA", "note": "[SEQ ID NO 26]", "values": [{"measurement": "binding", "setting": "[2]", "result": "binds"}]}
